# Results of single-concentration screens

Protein sequences, listed by entry. Tags and fused reporters are not part of them.
UniProt P9WPC5, whole entry: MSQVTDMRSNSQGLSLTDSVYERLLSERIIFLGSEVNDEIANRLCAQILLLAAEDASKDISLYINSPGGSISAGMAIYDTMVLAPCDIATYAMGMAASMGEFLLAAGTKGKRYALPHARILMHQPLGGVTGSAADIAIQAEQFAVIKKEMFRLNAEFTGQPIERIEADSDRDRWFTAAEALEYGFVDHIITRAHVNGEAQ
UniProt P9WPC3, whole entry partner: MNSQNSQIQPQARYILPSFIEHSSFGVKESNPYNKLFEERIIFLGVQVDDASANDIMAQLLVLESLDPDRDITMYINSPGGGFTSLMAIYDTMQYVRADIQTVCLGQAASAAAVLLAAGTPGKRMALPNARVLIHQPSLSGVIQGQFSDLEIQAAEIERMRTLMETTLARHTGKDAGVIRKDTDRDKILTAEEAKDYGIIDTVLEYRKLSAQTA

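Protease assay of ClpP1P2, read by the AMC dye that it sets free. Target: ClpP1P2, Mycobacterium tuberculosis (UniProt P9WPC5 and UniProt P9WPC3). Concentration: 50 µM. Direction is inferred from only a few compounds that gave an IC50; most scored high, so higher reads as stronger inhibition. Most other retested compounds had strongly negative values. Of about 69,000 compounds tested this way, about 10 (0.015%) reached 50% or more in at least one test.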

Each number is a percent effect as filed.
The record does not define 0% and 100%; most values in the screen are far below 50% and negative numbers occur (in some assays of this library far below -100).
The compounds are a random part of those screened.

| SMILES | percent effect |
|---|---|
| `O=C(CCn1c(C(F)F)cc2cccnc21)NC1CC1` | -4.486 |
| `O=C(CCc1ccccc1)C1CCCN(C(=O)c2ncc(F)cc2F)C1` (stereo not shown) | 1.403 |
| `Cn1ncc2c(=O)[nH]c(CN3CCCC3c3ccsc3)nc21` (stereo not shown) | -13.18 |
| `CCCOC(=O)N1CCCC2(CCN(Cc3cccc(C#N)c3)C2)C1` (stereo not shown) | -3.161 |
| `COC(=O)C(C)(C)NC(=O)C1CC(=O)N(CC2CC2)C1` (stereo not shown) | -4.275 |
| `Cc1ccccc1C1(C(=O)N2CCCC(n3cncn3)C2)CC1` (stereo not shown) | -21.09 |
| `CC(C)c1cc(C(=O)N2CCN(Cc3ccco3)CC2)n[nH]1` | 7.742 |
| `CN(C)C(=O)CO[C@H]1CN(Cc2ccc3c(c2)OCO3)[C@@H]2COC[C@H]12` | 8.15 |
| `COCCN(CCOC)Cc1c(C)nc2ccccc2c1O` | 15.69 |
| `CC(=O)Nc1nc(CNc2ccccc2CCC(F)(F)F)cs1` | 7.128 |
| `Cc1ccc(C(=O)N2C[C@@H]3CCCO[C@@H]3[C@H](N3CCOCC3)C2)cn1` | 2.021 |
| `Cc1nc(CNCC2CN(C)CCO2)cs1` (stereo not shown) | -8.497 |
| `COCc1ncc(CN2CCC(Oc3ccc(OC)cc3)CC2)cn1` | -6.391 |
| `Cc1nccn1CCCn1cncc1-c1ccc2c(c1)CCC(C)N2C` (stereo not shown) | -50.02 |
| `O=C(COCC1CC1)Nc1ncccc1O` | -11.12 |
| `O=C(CN1CCCC1CC(=O)c1ccccc1)NCc1ccccn1` (stereo not shown) | 15.9 |
| `Cc1n[nH]c(C2CN(CCCOc3ccc(F)cc3)CCO2)n1` (stereo not shown) | -8.74 |
| `CC(N)C(=O)N1CCC(Oc2cccc(C(F)(F)F)c2)CC1` (stereo not shown) | 5.434 |
| `Cn1cc(C(=O)N2CCOc3cc(F)ccc32)ccc1=O` | -0.05982 |
| `CCc1noc(C(C)N2CCC(O)CC2)n1` (stereo not shown) | -8.277 |
| `Cc1cc(C2CCCN2Cc2nc(-c3ccco3)no2)on1` (stereo not shown) | 3.769 |
| `O=C(CCCn1cnnn1)N1CCC(c2ccncc2)CC1` | 11.06 |
| `Cc1nc(C)n(CC2CCCN(c3ncnc4ccccc34)C2)n1` (stereo not shown) | 9.908 |
| `CCN1CCCc2cc(-c3cncn3C(C)CN3CCOCC3)ccc21` (stereo not shown) | -14.22 |
| `N[C@@H](Cc1c[nH]cn1)C(=O)N1CCC(Oc2ccc(F)cc2)CC1` | -1.528 |
| `c1cnn(-c2ccc(CN3CCCC(Cn4cncn4)C3)cc2)c1` (stereo not shown) | -11.83 |
| `Cc1ccc(CSc2nc(N)cc(NCC(=O)N3CCNCC3)n2)cc1` | 1.713 |
| `COc1ccccc1OC1CN(C(=O)Cc2c(C)nc(N)nc2C)C1` | -18.83 |
| `CC(C)C(Sc1nnnn1C1CC1)C(=O)NCc1cccnc1` (stereo not shown) | 0.2333 |
| `Fc1cccc(N2CCc3ncnc(N4CCOCC4)c3CC2)c1` | -3.989 |
| `COc1ccccc1OCCCn1c(C)c(C)oc1=O` | -4.663 |
| `CCOC(=O)C1CCCN(c2nccc(-n3nc(C)cc3C)n2)C1` (stereo not shown) | -10.29 |
| `OC1(CNCCN2CCCc3ccccc32)CCNC1` (stereo not shown) | -1.756 |
| `NC(=O)C1CCN(CCc2ccc(NC(=O)C3CC3)cc2)CC1` | -14.62 |
| `Cn1c(NCCN2CCCCCC2)c(C#N)c(=O)n(C)c1=O` | -3.074 |
| `COCCN1CCN(Cc2nc3c(s2)CCCC3)[C@H]2CS(=O)(=O)C[C@H]21` | 14.47 |
| `Cc1noc(C)c1CNCc1ccccc1N(C)C1CCN(C)CC1` | -12.87 |
| `O=C(c1cn(CCN2CCCCC2)nn1)N1CCCCO1` | -9.56 |
| `COCCN1Cc2ccccc2C2(CCN(C(=O)c3ccno3)CC2)C1` | -7.992 |
| `Cc1ccc(N2Cc3nc(=O)n(C(C)C)n3C2=O)cc1` | -5.406 |
| `CNc1cc(C)nc(C2COCCN2Cc2csc(C)n2)n1` (stereo not shown) | -25.75 |
| `COc1c(CNC2CCN(c3ncccn3)CC2)c(C(C)C)nn1C` | -6.163 |
| `O=C(C1CCC1)N1CCN(Cc2ccsc2)[C@H]2CS(=O)(=O)C[C@H]21` | -13.25 |
| `Cc1ccc(CS(=O)(=O)CC(=O)NCc2ccccc2F)cc1` | -14.76 |
| `COC(=O)CCNC(=O)c1cnc(Cc2ccc(F)cc2)s1` | 4.867 |
| `CC(C)Oc1ccccc1NC(=O)N1CCC(n2cncn2)CC1` | 4.211 |
| `CC(C)(C)NC(=O)C1CSCN1S(=O)(=O)c1ccc(F)cc1` (stereo not shown) | 7.012 |
| `CCc1ncc(C(=O)N2CCCN(C3CCCCC3)CC2)cn1` | 9.495 |
| `Cc1ccccc1OCC(=O)N1CCCC(CNS(C)(=O)=O)C1` (stereo not shown) | -10.95 |
| `CC(=O)N(CCc1ccccc1)CC(=O)Nc1ccccc1C#N` | -14.76 |
| `Cc1ccc(CN2C(=O)CCC2C(=O)Nc2cnn(C)c2)o1` (stereo not shown) | 13.27 |
| `Clc1cccc2c1CCN(Cc1nc(CC3CC3)no1)C2` | -7.538 |
| `CN(C)CCN1CCC2(CCN(C(=O)c3ccncc3)CC2)C1=O` | 0.6617 |
| `CSCCC(C)NC(=O)N1CCSC(C)(C)C1` (stereo not shown) | -2.037 |
| `O=C(CCN1CCCO1)N1CCCC(CO)(CCCc2ccccc2)C1` (stereo not shown) | -8.857 |
| `CN(C)CC(=O)N1Cc2nc(C(=O)N3CCCN(C)CC3)oc2C1` | -6.366 |
| `c1coc(CN2CCC(c3ccc4c(c3)OCO4)CC2)c1` | -15.79 |
| `Cc1ccc(N2CCC(NC(C)c3cccs3)CC2)nc1` (stereo not shown) | 2.13 |
| `COCCC(=O)N1CCC2(CN(Cc3ccc(OC)c(F)c3)C2)C1` | 4.617 |
| `CN1CCN(Cc2nnc(C3CCN(S(C)(=O)=O)CC3)n2C)CC1` | -13.86 |
| `Cc1nn(C)c2cn(CC(=O)NC3CCSCC3)nc12` | -2.831 |
| `COc1cc(C)sc1C(=O)N1CCCCC1c1ccccn1` (stereo not shown) | -6.688 |
| `COc1cncc(N2CCN(Cc3ccncc3Cl)CC2)n1` | -8.969 |
| `CCc1cc(N(C)Cc2nonc2C)nc(N(C)C)n1` | 0.3692 |

For reference, 4 entries once more:

| SMILES | percent effect |
|---|---|
| `CSCCC(C)NC(=O)N1CCSC(C)(C)C1` (stereo not shown) | -2.037 |
| `COc1cc(C)sc1C(=O)N1CCCCC1c1ccccn1` (stereo not shown) | -6.688 |
| `CCN1CCCc2cc(-c3cncn3C(C)CN3CCOCC3)ccc21` (stereo not shown) | -14.22 |
| `COCCN(CCOC)Cc1c(C)nc2ccccc2c1O` | 15.69 |

Source: ChEMBL document CHEMBL3988442, “University of Dundee, Small-Polar-MMV Screening Library” (2021).